Experimental data reported in PMC7069968, “Cholesteryl α-D-glucoside 6-acyltransferase enhances the adhesion of Helicobacter pylori to gastric epithelium” (Communications Biology, 2020).

Target: T1, cholesteryl α-D-glucopyranoside 6′-acyltransferase (CGAT) (Helicobacter pylori, UniProt O25241)
T1 construct: gene HP_0499
Test: biochemical

`CCCCc1oc2ccccc2c1C(=O)c1cc(I)c(OCCN(CC)CC)c(I)c1` [amiodarone] was tested, and the IC50 was 13.8 µM.
